Test results taken from publication PMC5691037.
No constants are given. Whether binding was seen depends on the method and setting. In cells and extracts the contact can be indirect. A yes stands for co-enrichment or nearness to the bait. Other partners may have been found.

Protein sequences, listed by entry. Tags and fused reporters are not part of them. Residues count along the entry.
UniProt Q86T03, residues 1-207: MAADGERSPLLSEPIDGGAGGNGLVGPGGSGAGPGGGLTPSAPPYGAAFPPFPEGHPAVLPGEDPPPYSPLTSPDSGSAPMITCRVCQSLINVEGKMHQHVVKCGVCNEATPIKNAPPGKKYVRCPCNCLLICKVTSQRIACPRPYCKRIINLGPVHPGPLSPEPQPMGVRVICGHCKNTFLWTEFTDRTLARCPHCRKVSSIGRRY

Target: RFP-FKBP-TMEM55B CD (human) (UniProt Q86T03)
Experiment: affinity purification with mass spectrometry; RFP pull-down on RFP-nanobody beads (Chromotek) from lysates of cells co-expressing RFP-FKBP-TMEM55B CD and LAMP1-CFP-FRB, treated or not with rapamycin; 25 mM Tris-HCl pH 7.5, 300 mM NaCl, 5 mM EDTA, 1% Triton X-100, 2 h at 4 °C; bands cut from SDS-PAGE, trypsin, LTQ Orbitrap Velos

- binding: binds
B1: JIP4 (endogenous) (protein, UniProt O60271 1-1321)
chain: MELEDGVVYQEEPGGSGAVMSERVSGLAGSIYREFERLIGRYDEEVVKELMPLVVAVLENLDSVFAQDQEHQVELELLRDDNEQLITQYEREKALRKHAEEKFIEFEDSQEQEKKDLQTRVESLESQTRQLELKAKNYADQISRLEEREAELKKEYNALHQRHTEMIHNYMEHLERTKLHQLSGSDQLESTAHSRIRKERPISLGIFPLPAGDGLLTPDAQKGGETPGSEQWKFQELSQPRSHTSLKVSNSPEPQKAVEQEDELSDVSQGGSKATTPASTANSDVATIPTDTPLKEENEGFVKVTDAPNKSEISKHIEVQVAQETRNVSTGSAENEEKSEVQAIIESTPELDMDKDLSGYKGSSTPTKGIENKAFDRNTESLFEELSSAGSGLIGDVDEGADLLGMGREVENLILENTQLLETKNALNIVKNDLIAKVDELTCEKDVLQGELEAVKQAKLKLEEKNRELEEELRKARAEAEDARQKAKDDDDSDIPTAQRKRFTRVEMARVLMERNQYKERLMELQEAVRWTEMIRASRENPAMQEKKRSSIWQFFSRLFSSSSNTTKKPEPPVNLKYNAPTSHVTPSVKKRSSTLSQLPGDKSKAFDFLSEETEASLASRREQKREQYRQVKAHVQKEDGRVQAFGWSLPQKYKQVTNGQGENKMKNLPVPVYLRPLDEKDTSMKLWCAVGVNLSGGKTRDGGSVVGASVFYKDVAGLDTEGSKQRSASQSSLDKLDQELKEQQKELKNQEELSSLVWICTSTHSATKVLIIDAVQPGNILDSFTVCNSHVLCIASVPGARETDYPAGEDLSESGQVDKASLCGSMTSNSSAETDSLLGGITVVGCSAEGVTGAATSPSTNGASPVMDKPPEMEAENSEVDENVPTAEEATEATEGNAGSAEDTVDISQTGVYTEHVFTDPLGVQIPEDLSPVYQSSNDSDAYKDQISVLPNEQDLVREEAQKMSSLLPTMWLGAQNGCLYVHSSVAQWRKCLHSIKLKDSILSIVHVKGIVLVALADGTLAIFHRGVDGQWDLSNYHLLDLGRPHHSIRCMTVVHDKVWCGYRNKIYVVQPKAMKIEKSFDAHPRKESQVRQLAWVGDGVWVSIRLDSTLRLYHAHTYQHLQDVDIEPYVSKMLGTGKLGFSFVRITALMVSCNRLWVGTGNGVIISIPLTETNKTSGVPGNRPGSVIRVYGDENSDKVTPGTFIPYCSMAHAQLCFHGHRDAVKFFVAVPGQVISPQSSSSGTDLTGDKAGPSAQEPGSQTPLKSMLVISGGEGYIDFRMGDEGGESELLGEDLPLEPSVTKAERSHLIVWQVMYGNE
